Among the data in the supplement of paper PMC10849652 are log2 fold change values, retold here.

Chains of the proteins cited; added tags and fusions are not shown. Lines headed by an entry give the natural chain unless they say otherwise; changes in a name come on top.
UniProt O75718: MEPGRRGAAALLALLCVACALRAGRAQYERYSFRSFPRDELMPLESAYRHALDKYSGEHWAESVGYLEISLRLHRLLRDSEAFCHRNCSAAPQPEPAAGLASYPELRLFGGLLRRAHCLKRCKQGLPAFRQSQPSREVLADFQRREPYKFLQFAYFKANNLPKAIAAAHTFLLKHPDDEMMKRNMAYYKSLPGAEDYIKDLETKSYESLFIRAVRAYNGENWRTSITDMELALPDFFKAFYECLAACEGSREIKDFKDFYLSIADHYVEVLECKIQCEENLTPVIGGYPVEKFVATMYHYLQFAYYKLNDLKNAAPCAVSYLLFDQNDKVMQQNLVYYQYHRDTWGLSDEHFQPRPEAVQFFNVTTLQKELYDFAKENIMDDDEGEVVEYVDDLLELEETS
UniProt P0C2W7: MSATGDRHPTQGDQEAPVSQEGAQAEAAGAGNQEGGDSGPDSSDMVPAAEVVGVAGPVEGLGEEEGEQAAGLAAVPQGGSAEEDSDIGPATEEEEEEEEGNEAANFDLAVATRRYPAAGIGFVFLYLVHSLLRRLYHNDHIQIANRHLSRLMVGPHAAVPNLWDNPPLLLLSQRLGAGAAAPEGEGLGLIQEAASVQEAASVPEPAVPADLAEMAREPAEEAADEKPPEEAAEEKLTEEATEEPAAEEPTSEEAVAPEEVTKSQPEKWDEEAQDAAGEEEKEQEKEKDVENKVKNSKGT
UniProt P10619: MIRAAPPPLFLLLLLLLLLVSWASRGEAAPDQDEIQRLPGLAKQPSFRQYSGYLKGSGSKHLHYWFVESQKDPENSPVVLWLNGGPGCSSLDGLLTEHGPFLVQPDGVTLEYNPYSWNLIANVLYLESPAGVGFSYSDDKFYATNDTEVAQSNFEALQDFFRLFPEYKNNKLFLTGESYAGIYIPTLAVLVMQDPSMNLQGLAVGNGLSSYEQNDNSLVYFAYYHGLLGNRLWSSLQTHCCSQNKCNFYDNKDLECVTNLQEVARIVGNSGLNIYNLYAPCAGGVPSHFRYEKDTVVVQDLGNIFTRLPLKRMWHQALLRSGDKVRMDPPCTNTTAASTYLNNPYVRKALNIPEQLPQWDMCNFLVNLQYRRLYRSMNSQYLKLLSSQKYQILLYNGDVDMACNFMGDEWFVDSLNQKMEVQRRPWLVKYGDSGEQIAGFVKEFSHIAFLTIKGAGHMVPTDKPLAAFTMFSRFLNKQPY
UniProt Q8IUI8: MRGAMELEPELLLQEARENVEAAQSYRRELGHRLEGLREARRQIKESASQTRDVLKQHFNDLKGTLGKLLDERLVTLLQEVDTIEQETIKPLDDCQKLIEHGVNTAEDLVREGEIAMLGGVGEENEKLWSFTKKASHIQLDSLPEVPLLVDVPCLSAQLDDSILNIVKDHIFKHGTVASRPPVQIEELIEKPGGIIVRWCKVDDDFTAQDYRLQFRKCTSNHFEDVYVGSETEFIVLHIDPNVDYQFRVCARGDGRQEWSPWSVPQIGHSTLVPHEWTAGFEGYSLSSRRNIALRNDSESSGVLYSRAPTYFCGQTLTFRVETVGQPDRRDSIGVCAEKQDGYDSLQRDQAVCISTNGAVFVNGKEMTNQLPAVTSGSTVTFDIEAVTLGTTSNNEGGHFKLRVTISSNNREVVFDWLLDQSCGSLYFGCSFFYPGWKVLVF
UniProt Q6UUV9: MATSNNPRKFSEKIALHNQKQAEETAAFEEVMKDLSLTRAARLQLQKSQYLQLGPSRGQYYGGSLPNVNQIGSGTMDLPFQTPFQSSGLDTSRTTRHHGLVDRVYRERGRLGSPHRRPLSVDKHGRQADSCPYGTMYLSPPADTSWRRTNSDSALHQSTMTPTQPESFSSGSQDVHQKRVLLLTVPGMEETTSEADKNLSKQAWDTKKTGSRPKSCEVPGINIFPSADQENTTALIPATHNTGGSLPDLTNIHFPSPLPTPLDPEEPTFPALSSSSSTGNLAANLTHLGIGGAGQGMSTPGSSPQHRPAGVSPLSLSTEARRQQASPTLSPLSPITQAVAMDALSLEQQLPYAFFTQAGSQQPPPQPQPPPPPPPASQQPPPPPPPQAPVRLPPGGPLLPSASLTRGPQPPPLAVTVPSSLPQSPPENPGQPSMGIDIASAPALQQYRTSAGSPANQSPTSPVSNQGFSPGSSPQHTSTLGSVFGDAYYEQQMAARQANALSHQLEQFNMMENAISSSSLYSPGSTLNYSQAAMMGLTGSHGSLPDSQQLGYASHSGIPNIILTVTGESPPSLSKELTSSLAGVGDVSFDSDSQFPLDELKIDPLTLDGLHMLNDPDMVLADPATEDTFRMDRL
UniProt Q8WUE5: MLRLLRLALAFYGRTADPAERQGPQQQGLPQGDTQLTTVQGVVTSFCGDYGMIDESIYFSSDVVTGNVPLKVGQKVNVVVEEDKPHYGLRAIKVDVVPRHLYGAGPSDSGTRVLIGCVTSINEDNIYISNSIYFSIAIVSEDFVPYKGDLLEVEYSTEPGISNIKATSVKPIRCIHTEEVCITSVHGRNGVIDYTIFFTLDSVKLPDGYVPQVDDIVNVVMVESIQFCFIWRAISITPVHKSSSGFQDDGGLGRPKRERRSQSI
UniProt Q2TBE0: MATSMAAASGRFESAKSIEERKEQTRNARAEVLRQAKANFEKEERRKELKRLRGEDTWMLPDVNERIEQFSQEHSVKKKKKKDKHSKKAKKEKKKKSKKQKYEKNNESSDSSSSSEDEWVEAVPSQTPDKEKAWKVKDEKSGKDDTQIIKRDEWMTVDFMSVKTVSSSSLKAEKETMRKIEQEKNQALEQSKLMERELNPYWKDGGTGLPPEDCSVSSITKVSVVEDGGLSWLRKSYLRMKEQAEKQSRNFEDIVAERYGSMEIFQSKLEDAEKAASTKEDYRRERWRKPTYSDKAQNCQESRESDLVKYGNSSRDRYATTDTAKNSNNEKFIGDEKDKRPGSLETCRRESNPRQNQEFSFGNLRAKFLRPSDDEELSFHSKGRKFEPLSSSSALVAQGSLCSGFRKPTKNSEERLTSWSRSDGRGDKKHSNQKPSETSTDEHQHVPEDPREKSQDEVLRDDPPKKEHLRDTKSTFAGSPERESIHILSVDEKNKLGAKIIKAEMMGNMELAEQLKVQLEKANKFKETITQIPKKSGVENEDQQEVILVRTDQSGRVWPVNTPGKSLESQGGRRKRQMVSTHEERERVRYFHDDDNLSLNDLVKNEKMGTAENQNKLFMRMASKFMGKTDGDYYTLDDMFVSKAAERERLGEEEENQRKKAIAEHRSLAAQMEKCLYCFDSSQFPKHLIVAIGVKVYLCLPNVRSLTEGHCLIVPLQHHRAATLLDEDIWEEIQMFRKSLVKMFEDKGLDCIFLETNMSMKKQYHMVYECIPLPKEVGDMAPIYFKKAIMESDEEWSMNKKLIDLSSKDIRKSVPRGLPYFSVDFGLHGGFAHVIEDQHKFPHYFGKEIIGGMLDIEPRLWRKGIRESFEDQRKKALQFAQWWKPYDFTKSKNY
UniProt Q14247: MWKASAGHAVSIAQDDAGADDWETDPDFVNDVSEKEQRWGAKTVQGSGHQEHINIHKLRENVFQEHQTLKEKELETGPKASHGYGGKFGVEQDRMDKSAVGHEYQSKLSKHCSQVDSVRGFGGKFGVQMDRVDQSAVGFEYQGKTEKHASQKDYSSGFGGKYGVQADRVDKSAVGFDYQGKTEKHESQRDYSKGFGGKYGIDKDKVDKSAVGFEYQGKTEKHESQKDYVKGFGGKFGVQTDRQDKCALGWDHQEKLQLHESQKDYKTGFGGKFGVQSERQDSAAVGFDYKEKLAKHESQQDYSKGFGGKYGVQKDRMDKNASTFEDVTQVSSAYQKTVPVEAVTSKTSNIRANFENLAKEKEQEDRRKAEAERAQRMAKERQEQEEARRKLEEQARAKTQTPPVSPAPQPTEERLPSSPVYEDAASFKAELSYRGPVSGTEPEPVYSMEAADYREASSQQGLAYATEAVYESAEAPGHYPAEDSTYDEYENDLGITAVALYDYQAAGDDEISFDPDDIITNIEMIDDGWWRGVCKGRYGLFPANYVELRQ
UniProt E9PJD7, whole entry, looked up: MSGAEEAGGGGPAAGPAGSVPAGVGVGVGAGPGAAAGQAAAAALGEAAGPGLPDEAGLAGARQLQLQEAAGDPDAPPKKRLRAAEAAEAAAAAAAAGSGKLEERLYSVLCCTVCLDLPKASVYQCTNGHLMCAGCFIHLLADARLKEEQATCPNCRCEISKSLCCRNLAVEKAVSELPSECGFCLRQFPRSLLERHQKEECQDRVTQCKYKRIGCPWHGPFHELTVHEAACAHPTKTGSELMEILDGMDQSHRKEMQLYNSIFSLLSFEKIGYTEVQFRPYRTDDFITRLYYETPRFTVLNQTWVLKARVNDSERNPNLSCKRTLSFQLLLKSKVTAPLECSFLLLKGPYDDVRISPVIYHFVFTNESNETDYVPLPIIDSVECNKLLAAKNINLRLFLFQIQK
UniProt O75534: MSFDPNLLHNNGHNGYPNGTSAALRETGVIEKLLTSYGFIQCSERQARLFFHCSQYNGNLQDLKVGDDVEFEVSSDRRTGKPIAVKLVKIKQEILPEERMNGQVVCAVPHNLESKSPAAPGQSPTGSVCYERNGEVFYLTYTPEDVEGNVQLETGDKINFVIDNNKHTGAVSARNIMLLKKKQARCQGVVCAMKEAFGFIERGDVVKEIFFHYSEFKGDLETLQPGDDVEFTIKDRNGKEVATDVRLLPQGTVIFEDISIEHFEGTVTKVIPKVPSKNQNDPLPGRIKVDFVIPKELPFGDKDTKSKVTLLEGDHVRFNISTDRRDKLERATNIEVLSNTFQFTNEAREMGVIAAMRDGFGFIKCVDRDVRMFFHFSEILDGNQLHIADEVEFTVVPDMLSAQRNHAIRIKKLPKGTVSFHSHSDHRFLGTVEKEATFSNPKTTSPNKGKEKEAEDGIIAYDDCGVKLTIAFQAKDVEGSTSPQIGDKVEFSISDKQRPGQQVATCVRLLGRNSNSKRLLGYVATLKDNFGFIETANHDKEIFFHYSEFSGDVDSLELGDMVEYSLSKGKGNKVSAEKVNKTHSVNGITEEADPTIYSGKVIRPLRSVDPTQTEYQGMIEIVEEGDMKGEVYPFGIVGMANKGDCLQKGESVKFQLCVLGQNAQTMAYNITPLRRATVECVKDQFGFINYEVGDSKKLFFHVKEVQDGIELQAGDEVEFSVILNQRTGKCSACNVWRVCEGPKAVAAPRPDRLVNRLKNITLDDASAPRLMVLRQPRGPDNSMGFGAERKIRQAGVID
UniProt P50461: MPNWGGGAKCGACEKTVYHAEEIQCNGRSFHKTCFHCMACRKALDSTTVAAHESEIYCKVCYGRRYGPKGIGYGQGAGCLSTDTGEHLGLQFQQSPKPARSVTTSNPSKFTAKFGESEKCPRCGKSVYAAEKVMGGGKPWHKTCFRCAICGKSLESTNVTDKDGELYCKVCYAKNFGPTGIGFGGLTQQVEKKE
UniProt Q9Y5B0: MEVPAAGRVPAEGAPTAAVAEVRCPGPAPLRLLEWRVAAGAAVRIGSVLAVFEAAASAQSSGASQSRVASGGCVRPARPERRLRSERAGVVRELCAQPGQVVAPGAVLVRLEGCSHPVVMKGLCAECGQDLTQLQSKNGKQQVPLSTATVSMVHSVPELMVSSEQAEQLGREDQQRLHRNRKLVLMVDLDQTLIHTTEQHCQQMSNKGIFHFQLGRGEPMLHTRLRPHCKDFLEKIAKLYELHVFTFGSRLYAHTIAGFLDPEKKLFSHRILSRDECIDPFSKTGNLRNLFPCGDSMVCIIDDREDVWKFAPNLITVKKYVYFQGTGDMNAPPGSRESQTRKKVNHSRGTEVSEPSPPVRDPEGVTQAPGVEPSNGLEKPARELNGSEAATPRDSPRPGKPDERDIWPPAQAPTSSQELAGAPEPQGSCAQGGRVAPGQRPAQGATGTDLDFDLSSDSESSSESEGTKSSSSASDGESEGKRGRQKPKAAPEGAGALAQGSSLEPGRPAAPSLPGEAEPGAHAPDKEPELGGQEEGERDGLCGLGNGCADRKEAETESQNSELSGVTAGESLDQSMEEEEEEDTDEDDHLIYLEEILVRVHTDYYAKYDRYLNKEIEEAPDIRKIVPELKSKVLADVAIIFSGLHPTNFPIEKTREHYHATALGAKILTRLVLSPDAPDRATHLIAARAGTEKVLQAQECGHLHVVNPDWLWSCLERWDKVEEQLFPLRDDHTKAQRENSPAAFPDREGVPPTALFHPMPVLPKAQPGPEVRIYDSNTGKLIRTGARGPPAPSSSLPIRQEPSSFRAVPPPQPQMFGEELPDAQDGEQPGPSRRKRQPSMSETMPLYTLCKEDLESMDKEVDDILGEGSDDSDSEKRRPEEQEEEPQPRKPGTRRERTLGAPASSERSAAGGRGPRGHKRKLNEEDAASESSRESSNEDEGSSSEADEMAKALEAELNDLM
UniProt Q9P013: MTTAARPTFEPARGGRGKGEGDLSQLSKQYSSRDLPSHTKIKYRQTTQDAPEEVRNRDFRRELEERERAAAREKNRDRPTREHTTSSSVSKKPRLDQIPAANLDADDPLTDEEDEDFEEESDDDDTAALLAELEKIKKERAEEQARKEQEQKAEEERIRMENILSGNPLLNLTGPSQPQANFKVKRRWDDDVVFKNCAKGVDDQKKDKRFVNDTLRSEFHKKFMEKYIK

The list shows a part of the results.

Holding throughout (test): log2 fold change, soluble protein after heating vs DMSO (PISA); higher = thermal stabilisation; K562 lysate, 10 uM; active = over 0.2 and 3.5 SD of the protein, either way, in both replicates (recomputed)
Compound in test [1]: NCC(=O)Nc1ccc(-n2nc(C(F)(F)F)cc2-c2ccc3c(ccc4ccccc43)c2)cc1
The procedure, abridged:
(§1)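 Quantification was by TMTpro 16plex LC-MS/MS with equalised channel sums, applied to the supernatant after 21,000xg for 90 min. Samples were crude K562 extract at 1 mg/mL protein in PBS pH 7.4 with 1 mM MgCl2, treated with 10 μM compound for 30 min, heated for 3 min across 48°C-58°C, pooled and brought to 0.5% NP-40 at 4°C. Values are log-two fold changes in thermal stability relative to solvent controls, from duplicates.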

Compound in the next test: O=C(CCCCCCC(=O)Nc1ccccc1)NO [vorinostat]
The procedure, abridged:
as §1

Compound in another test: O=C(O)c1ccc2c(c1)nc(Nc1cccc(Cl)c1)c1ccncc12 [silmitasertib]
In short, it runs like this:
as §1

Compound in test [2]: O=C1NC(=O)C(c2cnc3ccccn23)=C1c1cn2c3c(cc(F)cc13)CN(C(=O)N1CCCCC1)CC2
The procedure, abridged: as §1

Compound in a further test: c1cn2cc(-c3ccc4cn[nH]c4c3)nc(Nc3ccc(N4CCOCC4)cc3)c2n1 [entospletinib]
In short, it runs like this:
as §1

Take CXorf56 (UniProt Q9H5V9): the log2 fold change is inactive: -0.015 in test [1]; inactive: -0.083 in the test with vorinostat; inactive: -0.02 with silmitasertib; inactive: 0.014 in test [2]; inactive: -0.03 in the test with entospletinib.
In the same order, the values of CRTAP (UniProt O75718) are inactive: -0.021, inactive: 0.054, inactive: 0.001, inactive: -0.07 and inactive: -0.002.
On to CT47B1 (UniProt P0C2W7), for which the log2 fold change in test [1] is inactive: 0.116; with vorinostat, inactive: 0.046; with silmitasertib, inactive: 0.026; in test [2] it was inactive: -0.06; with entospletinib, inactive: 0.051.
CYB561A3 isoform 2 (UniProt Q8NBI2): the log2 fold change in test [1] was inactive: 0.095; in the test with vorinostat it was inactive: -0.051; with silmitasertib, inactive: 0.006; in test [2], inactive: -0.034; with entospletinib, inactive: 0.092.
For CTSA (UniProt P10619), in that order: inactive: -0.006, inactive: 0.008, inactive: -0.044, inactive: -0.011 and inactive: -0.009.
With CXorf38 (UniProt Q8TB03), the log2 fold change in test [1] is inactive: 0.092; with vorinostat, active: -0.227; with silmitasertib, inactive: -0.013; in test [2] it was inactive: 0.042; with entospletinib, inactive: -0.073.
With CRLF3 (UniProt Q8IUI8), the log2 fold change in test [1] is inactive: 0.049; in the test with vorinostat, inactive: -0.149; in the test with silmitasertib, inactive: -0.004; in test [2], inactive: 0.004; with entospletinib, inactive: 0.002.
For the target CRTC1 (UniProt Q6UUV9), the log2 fold change in test [1] was inactive: 0.202; in the test with vorinostat, inactive: 0.03; with silmitasertib it was inactive: -0.005; in test [2] it was inactive: 0; in the test with entospletinib, inactive: -0.121.
For CTNNB1 (UniProt P35222), in that order: inactive: 0.114, inactive: -0.026, inactive: 0.017, inactive: 0.002 and inactive: 0.022.
For CYBA (UniProt P13498), in that order: inactive: 0.033, inactive: 0.116, inactive: -0.042, inactive: -0.013 and inactive: 0.021.
In the same order, the values of CT55 (UniProt Q8WUE5) are inactive: -0.097, inactive: -0.052, inactive: 0.005, inactive: -0.03 and inactive: 0.035.
With CTNNA1 (UniProt P35221), the log2 fold change in test [1] is inactive: -0.002; in the test with vorinostat it was inactive: -0.003; with silmitasertib it was inactive: -0.021; in test [2], inactive: 0.033; with entospletinib, inactive: 0.024.
In the same order, the values of CWF19L2 (UniProt Q2TBE0) are inactive: 0.019, inactive: -0.063, inactive: 0.035, inactive: -0.028 and inactive: -0.011.
In the same order, the values of CTTN (UniProt Q14247) are inactive: -0.005, inactive: 0.073, inactive: -0.034, inactive: 0 and inactive: 0.
In the same order, the values of CTCF (UniProt P49711) are inactive: 0.005, inactive: 0.004, inactive: 0.029, inactive: -0.008 and inactive: -0.031.
Turning to CYHR1 (UniProt E9PJD7), the log2 fold change was inactive: 0.016 in test [1]; inactive: -0.067 in the test with vorinostat; inactive: -0.023 in the test with silmitasertib; inactive: 0.03 in test [2]; inactive: 0.11 in the test with entospletinib.
CRYAB (UniProt P02511): the log2 fold change in test [1] is inactive: 0.054; with vorinostat, inactive: 0.135; in the test with silmitasertib, inactive: -0.079; in test [2], inactive: 0.092; with entospletinib, inactive: 0.036.
In the same order, the values of CSDE1 isoform 4 (UniProt O75534) are inactive: -0.004, active: -0.33, inactive: 0.015, inactive: -0.009 and inactive: 0.04.
In the same order, the values of CT47A1 (UniProt Q5JQC4) are inactive: -0.025, inactive: 0.051, inactive: -0.057, inactive: -0.024 and inactive: -0.004.
In the same order, the values of CSRP3 (UniProt P50461) are inactive: 0.027, inactive: 0.087, inactive: 0.141, inactive: -0.045 and inactive: 0.
As for CTNNAL1 (UniProt Q9UBT7), the log2 fold change was inactive: -0.033 in test [1]; inactive: -0.262 with vorinostat; inactive: 0.024 in the test with silmitasertib; inactive: 0.033 in test [2]; inactive: -0.052 with entospletinib.
As for CSPP1 (UniProt Q1MSJ5), the log2 fold change is inactive: 0.122 in test [1]; inactive: 0.085 in the test with vorinostat; inactive: -0.027 with silmitasertib; inactive: 0.043 in test [2]; inactive: 0.003 with entospletinib.
Take CTDP1 (UniProt Q9Y5B0): the log2 fold change in test [1] was inactive: -0.039; with vorinostat, inactive: -0.232; in the test with silmitasertib, inactive: 0.002; in test [2] it was inactive: -0.003; with entospletinib it was inactive: 0.008.
In the same order, the values of CWC15 (UniProt Q9P013) are inactive: 0.01, inactive: 0.065, inactive: 0.02, inactive: 0.016 and inactive: 0.036.
